In the supplement of paper PMC12823440, “Inhibitors supercharge kinase turnover through native proteolytic circuits” (Nature, 2025):
Where a name gives a salt, the structure may show the parent alone. Some of the results follow. The calls rarely recur for the same compound in another form.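 Kinases, fused to nanoluciferase, were expressed in K562 cells; luminescence was measured every 4 h from 2 to 18 h as percent of control (DMSO = 100%, positive control = 0%). A time point is decreased if signal falls significantly (2 sigma). Hits were called by the authors by a rule that is not shown; the count of time points alone does not decide it.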

Amino acid sequences for entries named in this document (tags omitted). A change or cut given only in a name is not applied to a line headed by its entry.
UniProt P48729: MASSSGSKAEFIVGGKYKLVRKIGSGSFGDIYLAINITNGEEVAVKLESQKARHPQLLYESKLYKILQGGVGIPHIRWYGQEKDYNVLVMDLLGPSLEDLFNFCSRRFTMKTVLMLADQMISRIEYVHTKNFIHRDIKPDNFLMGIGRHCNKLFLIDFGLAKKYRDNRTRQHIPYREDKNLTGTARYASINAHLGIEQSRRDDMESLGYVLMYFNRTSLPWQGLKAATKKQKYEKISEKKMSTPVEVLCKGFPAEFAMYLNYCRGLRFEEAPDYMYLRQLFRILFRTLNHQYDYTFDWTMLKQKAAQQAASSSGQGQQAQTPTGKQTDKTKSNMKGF
UniProt P48730: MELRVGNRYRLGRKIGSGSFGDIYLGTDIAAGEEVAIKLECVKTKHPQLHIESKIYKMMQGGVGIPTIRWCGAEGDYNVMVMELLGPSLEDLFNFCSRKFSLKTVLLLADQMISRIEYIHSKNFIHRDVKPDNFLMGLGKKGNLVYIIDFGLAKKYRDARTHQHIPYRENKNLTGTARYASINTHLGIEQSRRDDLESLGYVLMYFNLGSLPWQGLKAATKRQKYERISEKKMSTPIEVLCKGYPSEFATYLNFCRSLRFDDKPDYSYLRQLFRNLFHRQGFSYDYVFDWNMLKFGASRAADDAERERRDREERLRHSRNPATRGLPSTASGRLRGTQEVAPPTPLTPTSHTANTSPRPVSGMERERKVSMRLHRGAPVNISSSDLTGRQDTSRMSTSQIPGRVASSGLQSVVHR
UniProt Q08345: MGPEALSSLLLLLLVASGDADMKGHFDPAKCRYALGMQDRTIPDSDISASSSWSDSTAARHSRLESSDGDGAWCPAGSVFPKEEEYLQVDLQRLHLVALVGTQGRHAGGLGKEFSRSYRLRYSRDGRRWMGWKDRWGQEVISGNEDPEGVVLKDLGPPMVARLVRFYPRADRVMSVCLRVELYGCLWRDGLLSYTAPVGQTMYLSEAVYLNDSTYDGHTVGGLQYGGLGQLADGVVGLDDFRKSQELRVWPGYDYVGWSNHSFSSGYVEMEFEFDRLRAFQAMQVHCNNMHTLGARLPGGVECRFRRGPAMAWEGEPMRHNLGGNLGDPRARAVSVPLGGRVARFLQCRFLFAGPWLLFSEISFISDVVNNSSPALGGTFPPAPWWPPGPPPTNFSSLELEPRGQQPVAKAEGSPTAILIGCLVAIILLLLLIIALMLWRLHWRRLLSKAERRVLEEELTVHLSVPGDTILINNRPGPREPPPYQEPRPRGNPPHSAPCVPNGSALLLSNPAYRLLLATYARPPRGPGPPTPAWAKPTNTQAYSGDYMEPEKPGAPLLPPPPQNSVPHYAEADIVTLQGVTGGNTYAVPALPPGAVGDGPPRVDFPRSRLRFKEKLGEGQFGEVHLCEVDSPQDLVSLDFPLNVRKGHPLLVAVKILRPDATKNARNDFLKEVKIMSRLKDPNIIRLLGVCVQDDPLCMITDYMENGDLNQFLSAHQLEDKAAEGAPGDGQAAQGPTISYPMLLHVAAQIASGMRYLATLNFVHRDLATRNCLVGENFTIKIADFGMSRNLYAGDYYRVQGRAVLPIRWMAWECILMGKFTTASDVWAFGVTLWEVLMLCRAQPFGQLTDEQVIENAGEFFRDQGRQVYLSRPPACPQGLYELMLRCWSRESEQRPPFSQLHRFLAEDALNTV
UniProt Q9Y463, whole entry, looked up: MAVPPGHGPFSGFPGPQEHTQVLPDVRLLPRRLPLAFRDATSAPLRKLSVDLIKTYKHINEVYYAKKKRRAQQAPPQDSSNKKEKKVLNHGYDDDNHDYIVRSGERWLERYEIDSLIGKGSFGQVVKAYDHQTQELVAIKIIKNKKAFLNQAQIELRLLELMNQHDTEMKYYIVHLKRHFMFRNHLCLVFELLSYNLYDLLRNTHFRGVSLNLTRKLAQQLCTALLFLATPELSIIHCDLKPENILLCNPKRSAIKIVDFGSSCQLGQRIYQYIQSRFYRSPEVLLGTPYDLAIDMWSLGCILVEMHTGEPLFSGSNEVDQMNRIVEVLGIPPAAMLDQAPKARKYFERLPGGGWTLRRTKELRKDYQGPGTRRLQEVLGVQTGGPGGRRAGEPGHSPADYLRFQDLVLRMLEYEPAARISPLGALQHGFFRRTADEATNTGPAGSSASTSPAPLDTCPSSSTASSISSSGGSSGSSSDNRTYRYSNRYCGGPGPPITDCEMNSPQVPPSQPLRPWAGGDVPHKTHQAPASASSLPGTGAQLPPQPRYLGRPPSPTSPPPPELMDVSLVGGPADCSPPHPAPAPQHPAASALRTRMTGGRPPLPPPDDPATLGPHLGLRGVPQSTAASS
UniProt Q92630: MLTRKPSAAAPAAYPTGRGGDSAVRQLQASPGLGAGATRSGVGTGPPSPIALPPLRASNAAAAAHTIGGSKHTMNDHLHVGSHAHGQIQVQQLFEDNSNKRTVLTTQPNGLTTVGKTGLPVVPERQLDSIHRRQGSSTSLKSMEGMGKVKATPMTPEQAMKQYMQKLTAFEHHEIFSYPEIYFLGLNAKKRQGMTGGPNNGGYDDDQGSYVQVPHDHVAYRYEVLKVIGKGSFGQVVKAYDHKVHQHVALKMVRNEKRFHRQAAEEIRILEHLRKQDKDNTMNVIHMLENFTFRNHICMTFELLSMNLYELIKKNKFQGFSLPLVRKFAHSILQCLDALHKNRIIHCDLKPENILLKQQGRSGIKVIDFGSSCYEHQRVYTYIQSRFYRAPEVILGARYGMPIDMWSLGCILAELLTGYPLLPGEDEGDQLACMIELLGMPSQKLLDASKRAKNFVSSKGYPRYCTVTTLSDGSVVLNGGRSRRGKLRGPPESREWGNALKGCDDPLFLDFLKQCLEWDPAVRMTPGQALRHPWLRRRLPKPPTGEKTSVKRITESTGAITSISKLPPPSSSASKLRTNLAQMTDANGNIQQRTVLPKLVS

Key:
Test in all cases: number of time points (of 5) at which kinase-Nluc abundance scored as decreased, DMSO-normalised (count); higher = more persistent destabilization
Conditions in all cases: K562; 2-18 h
CSNK1A1 = CSNK1A1 (UniProt P48729)
CSNK1D = CSNK1D (UniProt P48730)
DDR1 = DDR1 (UniProt Q08345)
DYRK1B = DYRK1B (UniProt Q9Y463)
DYRK2 = DYRK2 (UniProt Q92630)
EGFR = EGFR (UniProt P00533)
EGFR_G719S = EGFR_G719S (UniProt P00533)
EGFR_G719S_T790M = EGFR_G719S_T790M (UniProt P00533)
EGFR_L718V = EGFR_L718V (UniProt P00533)
EGFR_L858R = EGFR_L858R (UniProt P00533)

Measured: number of time points

CC[C@H](Nc1ncnc2[nH]cnc12)c1oc2ccccc2c(=O)c1-c1cccc(F)c1 [Tenalisib] (10 µM)
0: all assays above

COc1ncc(Nc2ncc([C@@H](C)N3CCN(S(C)(=O)=O)CC3)cc2-c2nc(C)nc(N)n2)cc1F (10 µM)
0: all assays above

C=CC(=O)N1CCC[C@@H](n2nc(C(=O)Nc3ccc(CC(=O)N(C)C)c(C)c3C)c3c(N)ncnc32)C1 (10 µM)
0: all assays above

CN(C)C(=O)c1ccc(S(=O)(=O)c2ccc(NC(=O)[C@@](C)(O)C(F)(F)F)c(Cl)c2)cc1 (10 µM)
0: all assays above

CC[C@@H]1C(=O)N(C)c2cnc(Nc3ccc(C(=O)N[C@H]4CC[C@H](N5CCN(CC6CC6)CC5)CC4)cc3OC)nc2N1C(C)C [Volasertib] (2.5 µM)
0: all assays above

Cc1cnc(Nc2ccc(N3CCN(C)CC3)cc2)nc1Nc1cccc(S(=O)(=O)NC(C)(C)C)c1 (2.5 µM)
1: EGFR_L858R
0: all other assays above

c1ccc(-c2nn3c(c2-c2ccnc4cc(OCCN5CCOCC5)ccc24)CCC3)nc1 (10 µM)
0: all assays above

C[C@@H]1COCCN1c1cc(C2([S@](C)(=N)=O)CC2)nc(-c2cc[nH]c3nccc2-3)n1 [Ceralasertib] (2.5 µM)
0: all assays above

COc1cc(C(C)=O)cc(OC)c1O [Acetosyringone] (10 µM)
0: all assays above

NCCCCCCNS(=O)(=O)c1cccc2c(Cl)cccc12 [W-7 (hydrochloride)] (10 µM)
0: all assays above

CCCCNC(=N)NC(=N)N [Buformin (hydrochloride)] (2.5 µM)
0: all assays above

NC(=O)c1ccc(-c2cnn3ccc(NCc4cccnc4)nc23)cc1 (2.5 µM)
0: all assays above

COc1ccccc1/C=C1\C(=O)Nc2ccccc21 (10 µM)
0: all assays above

CCCC(=O)Nc1nc2c(ncn2[C@@H]2O[C@@H]3COP(=O)(O)O[C@H]3[C@H]2OC(=O)CCC)c(=O)[nH]1 [Dibutyryl-cGMP (sodium)] (10 µM)
0: all assays above

Four structures already listed, ordered by formula weight, smallest number first.
COc1cc(C(C)=O)cc(OC)c1O [Acetosyringone] (10 µM)
0: all assays above

COc1ccccc1/C=C1\C(=O)Nc2ccccc21 (10 µM)
0: all assays above

CN(C)C(=O)c1ccc(S(=O)(=O)c2ccc(NC(=O)[C@@](C)(O)C(F)(F)F)c(Cl)c2)cc1 (10 µM)
0: all assays above

CCCC(=O)Nc1nc2c(ncn2[C@@H]2O[C@@H]3COP(=O)(O)O[C@H]3[C@H]2OC(=O)CCC)c(=O)[nH]1 [Dibutyryl-cGMP (sodium)] (10 µM)
0: all assays above

More records:

O=[N+]([O-])c1ccc(Sc2cccc[n+]2[O-])c2nonc12 (2.5 µM)
0: all assays above

O[C@H]1CC[C@H](Nc2ncc3nc(Nc4c(F)cc(F)cc4F)n([C@H]4CCOC4)c3n2)CC1 [Tanzisertib] (10 µM)
0: all assays above

C[C@H]1[C@H](OC(=O)CCC(=O)O)O[C@@H]2O[C@@]3(C)CC[C@H]4[C@H](C)CC[C@@H]1[C@@]24OO3 [Artesunate] (2.5 µM)
1: DDR1
2: DYRK2
0: all other assays above
